Laboratory results reported in PubChem BioAssay AID2417 (National Center for Advancing Translational Sciences (NCATS), 2010).
Screen size: about 140,000 compounds; about 4,300 (3.1%) were called active. This list was built around the results that the source calls inconclusive (neither active nor inactive); the mix of calls is not that of the screen.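 How the source made its calls: active means readout at or below -70, meaning at least 70% loss of cells showing the perinucleolar compartment, a nuclear body marking cancer cells; inconclusive means readout between -30 and a set limit; inactive means the rest.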

Assay: High Content Assay for Compounds that inhibit the Assembly of the Perinucleolar Compartment;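 further: plate controls were DMSO wells for no effect and camptothecin positive control wells for full effect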
Conditions: PC3M PTB-GFP, PNC prevalence imaging, 16 h; at 10 µM; active compounds read low
Outline: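 Read-out is percentage of cells bearing a perinucleolar compartment, from automated 20x imaging of fixed, Hoechst-stained PC3M PTB-GFP cells. Cells were seeded 4 h, then exposed 16 h to compound (23 nl of library stock) in duplicate plates.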

SMILES | activity change (PNC), negative = inhibition
C=CCn1c(SCCOc2ccc(OC)cc2)nnc1C(C)NC(=O)Cc1ccc(OC)cc1 (stereo unspecified) | inconclusive: -57.1%
CCCCNCc1cc(OCC)c(OCC(N)=O)cc1Br | inactive: -25%
CC1=C(C#N)C(c2ccoc2)C(C(=O)OCc2ccccc2)=C(N)S1 (stereo unspecified) | inactive: -24.2%
Cc1ccccc1C(=O)NNC(=O)c1cc(N)cc([N+](=O)[O-])c1 | inactive: -24.6%
Cc1ccc2cccc(S(=O)(=O)Nc3c(C)n(C)n(-c4ccccc4)c3=O)c2n1 | inconclusive: -46.5%
O=C(Cc1ccc(-n2c(=O)c3ccccc3n(Cc3ccccc3F)c2=O)cc1)NCC1CCCO1 (stereo unspecified) | inconclusive: -32.1%
Cc1cccc(OCC2=NS(=O)(=O)c3ccccc3N2)c1 | inconclusive: -43.2%
CC1=NOC(=O)/C1=C\c1ccc(-c2cccc(Cl)c2)o1 | inactive: 55.6%
O=C(Nc1cc(S(=O)(=O)Nc2ccc(Cl)cc2)ccc1N1CCCCC1)c1ccc(F)cc1 | inconclusive: -31.4%
Cc1cccc(OCC(=O)Nc2ccc3c(c2)OCCO3)c1 | inconclusive: -53.5%
Cc1cc(NC(=O)CCc2ccc(S(=O)(=O)N3CCOCC3)cc2)n(-c2ccccc2)n1 | active: -100%
CCCc1nnc(NC(=O)c2c(O)c3c([nH]c2=O)CCCC3)s1 | active: -114%
COC(=O)c1c(NC(=O)c2nc3ncccn3n2)sc(C(=O)N(C)C)c1C | inconclusive: -53.4%
CCOC(=O)c1sc(NC(=O)c2ccco2)nc1-c1ccccc1 | inactive: -4.98%
CCN(CCO)Cc1cc(=O)oc2c(C)c(C)ccc12 | inconclusive: -37%
CSCCC(NC(=O)c1ccc(Cl)cc1)C(=O)NC(C)(C)C (stereo unspecified) | inconclusive: -42.6%
CCCc1nc2c(c(=O)c3ccccc3n2C)c(=O)n1C1CCCCCC1 | inconclusive: -57.7%
CCN(CC)c1ncnc2sc(C(=O)N3CCN(c4ccc(OC)cc4)CC3)c(C)c12 | inconclusive: -48.8%
FC(F)(F)c1cnc(Oc2ccc(-c3nnco3)cc2)c(Cl)c1 | inactive: -29.7%
N#CC1=C(N)Oc2n[nH]c(-c3cccs3)c2C1C1C=CCCC1 (stereo unspecified) | inactive: 11.9%
CCC(=NCCc1c(C)[nH]c2ccc(C)cc12)C1=C(O)CC(c2ccccc2)CC1=O (stereo unspecified) | active: -116%
Cn1nnc2cc(C(=O)N3CCN(c4ccccc4)CC3)ccc21 | inconclusive: -41.1%
CC(C)=CCC/C(C)=C/CCC(C)NCCN1CCNCC1 (stereo unspecified) | inconclusive: -49.2%

SMILES | activity change (PNC), negative = inhibition
COc1ccc(C(=O)NNC(=O)c2ccccc2[N+](=O)[O-])cc1 | active: -89.4%
CC1=CC(C)(C)Nc2cc(C)c(C)cc21 | inactive: -3.24%
C/C=C/c1c(F)c(F)c(Oc2ccc(C(=O)O)cc2)c(F)c1F | active: -84.5%
Cc1cc2ccccc2n1CCNC(=O)COc1ccc2ccccc2c1 | inconclusive: -39.1%
O=[N+]([O-])c1ccccc1S(=O)(=O)Oc1ccccc1/C=N/n1cnnc1 | inconclusive: -41.8%
CCC(C)C(NC(=O)C1CCC(C)CC1)C(=O)Nc1cc(OC)ccc1OC (stereo unspecified) | inactive: -8.53%
CCOC(=O)c1c(C)[nH]c(C(=O)OCC(=O)N2c3ccccc3CC2C)c1C (stereo unspecified) | inconclusive: -44%
CN(C)c1ccc(NC(=O)c2cn(-c3ccccc3)nc2-c2cccs2)cc1 | inconclusive: -41.9%
CC1CCN(c2oc(-c3ccccc3Cl)nc2C#N)CC1 | inconclusive: -49.2%
CCOC(=O)c1cnc(SCc2nc(N)nc(Nc3ccc(C)cc3)n2)nc1N | active: -81.2%
CN1CCN(CCCNC(=O)C2CC(=O)N(C3CCCCC3)C2)CC1 (stereo unspecified) | inconclusive: -35.6%
CCOC(=O)C1CCCN(C2CC(=O)N(c3ccc(C)c(C)c3)C2=O)C1 (stereo unspecified) | inconclusive: -38.7%
Cc1ccc(NC(=O)CSc2nccn2C)cc1S(=O)(=O)N1CCOCC1 | inconclusive: -70.5%
CC(C)NC(=O)COc1ccc(/C=N/NS(=O)(=O)c2ccccc2)cc1 | inactive: 24.8%
CN1CC(=O)Nc2ccc(F)cc2C1=O | inconclusive: -43.6%
O=C(N/N=C/C(Br)=C\c1ccccc1)c1ccc2nc[nH]c2c1 | inconclusive: -34%
Cc1ccccc1Oc1ccc(Oc2ccccc2C)nn1 | inconclusive: -55.6%
C/C(N)=C(/C#N)C(=O)CSc1ccc2c(c1)OCCO2 | inconclusive: -47.5%
Cn1c(SCC(=O)NCc2ccco2)nnc1-c1ccc(S(=O)(=O)N2CCOCC2)cc1 | active: -100%
CC(=O)Nc1ccccc1OC(C)C(=O)NC(C)c1ccc(F)cc1 (stereo unspecified) | inactive: 54.4%
C/C(=C\C(=O)c1ccccc1)NCc1ccc(F)cc1 | inconclusive: -58.7%
CCN(CC)CCNC(=O)c1c(O)c2cc(OC)c(OC)cc2[nH]c1=O | active: -119%
Cc1cccc(N(CC(=O)NC2CCCC2)C(=O)CCCC(=O)Nc2ccccn2)c1 | inconclusive: -34%

Three structures out of the list, arranged by formula weight, falling.
SMILES | activity change (PNC), negative = inhibition
Cc1ccc(NC(=O)CSc2nccn2C)cc1S(=O)(=O)N1CCOCC1 | inconclusive: -70.5%
CN1CC(=O)Nc2ccc(F)cc2C1=O | inconclusive: -43.6%
CC1=CC(C)(C)Nc2cc(C)c(C)cc21 | inactive: -3.24%
